The list is a part of this screen's results and no random one: it gathers tests that were run many times, whatever their T/C, doses with no T/C, and many T/C values between a quarter and a half above the control. Other doses and runs of a compound stand elsewhere. T/C gives the treated animals as a percentage of the vehicle group. Some doses have a count of surviving animals in place of a T/C: the source holds a T/C of zero for them, seemingly a mark for toxic or unscored doses. Some doses without a T/C left all or most animals alive at the check, yet need not have been tolerated: the source hardly ever lists a survival T/C far under the control, and the zero likely stands for such cases as well. Counts of survivors are from the toxicity check (mostly the fifth day) where no day follows; animals may have died later. Schedules are NCI's codes, read here as Q, the interval in days (D) or hours (H), X, the number of doses. Some molecules as drawn cover several salts, stereoisomers or complexes of the source; a dose is that of the sample tested. Additions like (4×) say how often a value occurs here. Some entries hold several experiments; their values stand side by side, smallest first. Where survival is the endpoint, this PubChem deposit counts one and a half times the control or more as active, and values a quarter to a half above the control carry no call in these data; other NCI protocols may use other cut-offs.
System: CD2F1 mice, L1210 leukemia ip, survival T/C
Test: NCI In Vivo Anticancer Drug Screen. Data for tumor model L1210 Leukemia (intraperitoneal) in CD2F1 (CDF1) mice
Settings: T/C endpoint: mean survival time, higher T/C = longer survival
Method in brief: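 Mice carrying a transplanted tumor received test compound or vehicle alone. The value is the measurement in the treated group divided by that in the vehicle-treated control group.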

## COc1cc(NS(C)(=O)=O)ccc1Nc1c2ccccc2nc2ccccc12
dose: 0.25 mg/kg/injection, schedule: Q03HX024 (ip), vehicle: saline
  T/C: 127 % of control
dose: 0.5 mg/kg/injection, schedule: Q03HX016 (ip), vehicle: saline
  T/C: 136 % of control
dose: 0.5 mg/kg/injection, schedule: Q03HX024 (ip), vehicle: saline
  T/C: 147 % of control
dose: 0.9 mg/kg/injection, schedule: Q01DX009 (ip), vehicle: other
  T/C: 135 (2×) and 141 % of control (2×)
dose: 1.0 mg/kg/injection, schedule: Q01DX009 (ip), vehicle: saline, evaluated on day 5
  T/C: 135 % of control
dose: 1.0 mg/kg/injection, schedule: Q01DX009 (ip), vehicle: saline, evaluated on day 60
  T/C: 127 and 148 % of control
dose: 1.0 mg/kg/injection, schedule: Q03HX008 (ip), vehicle: saline
  T/C: 141 % of control
dose: 1.0 mg/kg/injection, schedule: Q03HX024 (ip), vehicle: saline
  T/C: 130 and 149 % of control
dose: 1.8 mg/kg/injection, schedule: Q01DX001 (ip), vehicle: other
  T/C: 127 (2×) and 131 % of control (2×)
dose: 1.8 mg/kg/injection, schedule: Q01DX009 (ip), vehicle: other
  T/C: 148 % of control (2×)
dose: 1.8 mg/kg/injection, schedule: Q04DX003 (ip), vehicle: other
  T/C: 125 (2×) and 130 % of control (2×)
dose: 2.0 mg/kg/injection, schedule: Q01DX009 (ip), vehicle: saline
  T/C: 149 % of control
dose: 2.0 mg/kg/injection, schedule: Q03HX016 (ip), vehicle: saline
  T/C: 147 % of control
dose: 2.0 mg/kg/injection, schedule: Q03HX024 (ip), vehicle: saline
  T/C: 149 % of control
dose: 2.0 mg/kg/injection, schedule: Q04DX003 (ip), vehicle: saline
  T/C: 129 % of control
dose: 3.75 mg/kg/injection, schedule: Q01DX001 (ip), vehicle: other
  T/C: 125 (2×) and 130 % of control (2×)
dose: 3.75 mg/kg/injection, schedule: Q01DX009 (ip), vehicle: Klucel (hydroxypropylcellulose) (HPC)
  T/C: 141 % of control
dose: 3.75 mg/kg/injection, schedule: Q04DX003 (ip), vehicle: other
  T/C: 147 % of control (2×)
dose: 4.0 mg/kg/injection, schedule: Q01DX009 (sc), vehicle: saline
  T/C: 126 % of control
dose: 4.0 mg/kg/injection, schedule: Q04DX003 (ip), vehicle: saline
  T/C: 135 % of control
dose: 4.0 mg/kg/injection, schedule: Q08DX002 (ip), vehicle: saline
  T/C: 125 % of control
dose: 7.5 mg/kg/injection, schedule: Q01DX001 (ip), vehicle: Klucel (hydroxypropylcellulose) (HPC)
  T/C: 131 % of control
dose: 7.5 mg/kg/injection, schedule: Q01DX001 (ip), vehicle: other
  T/C: 138 (2×) and 142 % of control (2×)
dose: 7.5 mg/kg/injection, schedule: Q04DX003 (ip), vehicle: Klucel (hydroxypropylcellulose) (HPC)
  T/C: 126 % of control
dose: 7.5 mg/kg/injection, schedule: Q04DX003 (ip), vehicle: other
  T/C: 148 % of control (2×)
dose: 8.0 mg/kg/injection, schedule: Q01DX001 (ip), vehicle: saline
  T/C: 133 % of control
dose: 8.0 mg/kg/injection, schedule: Q01DX009 (ip), vehicle: saline
  T/C: 126 and 147 % of control
dose: 8.0 mg/kg/injection, schedule: Q01DX009 (sc), vehicle: saline
  T/C: 132 % of control
dose: 8.0 mg/kg/injection, schedule: Q03HX008 (ip), vehicle: saline
  survivor count: 0 of 10
dose: 8.0 mg/kg/injection, schedule: Q03HX016 (ip), vehicle: saline
  survivor count: 2 of 10
dose: 8.0 mg/kg/injection, schedule: Q03HX024 (ip), vehicle: saline
  survivor count: 8 of 10
dose: 8.0 mg/kg/injection, schedule: Q04DX003 (ip), vehicle: saline
  T/C: 141 and 142 % of control
dose: 8.0 mg/kg/injection, schedule: Q08DX002 (ip), vehicle: saline
  T/C: 139 % of control
dose: 12.5 mg/kg/injection, schedule: Q01DX001 (ip), vehicle: Klucel (hydroxypropylcellulose) (HPC)
  T/C: 129 % of control
dose: 15.0 mg/kg/injection, schedule: Q01DX001 (ip), vehicle: other
  T/C: 147 % of control (2×)
dose: 15.0 mg/kg/injection, schedule: Q01DX009 (ip), vehicle: other
  survivor count: 8 of 10 (2×) and 9 of 10 (2×)
dose: 15.0 mg/kg/injection, schedule: Q04DX003 (ip), vehicle: Klucel (hydroxypropylcellulose) (HPC)
  T/C: 139 % of control
dose: 16.0 mg/kg/injection, schedule: Q01DX001 (ip), vehicle: saline
  T/C: 140 and 145 % of control
dose: 16.0 mg/kg/injection, schedule: Q01DX009 (ip), vehicle: saline
  survivor count: 10 of 10 (2×)
dose: 16.0 mg/kg/injection, schedule: Q03HX008 (ip), vehicle: saline
  survivor count: 0 of 10 and 5 of 10
dose: 16.0 mg/kg/injection, schedule: Q03HX016 (ip), vehicle: saline
  survivor count: 5 of 10
dose: 16.0 mg/kg/injection, schedule: Q03HX024 (ip), vehicle: saline
  survivor count: 5 of 10
dose: 16.0 mg/kg/injection, schedule: Q08DX002 (ip), vehicle: saline
  T/C: 140 % of control
dose: 25.0 mg/kg/injection, schedule: Q01DX001 (ip), vehicle: Klucel (hydroxypropylcellulose) (HPC)
  T/C: 148 % of control
dose: 30.0 mg/kg/injection, schedule: Q01DX001 (ip), vehicle: Klucel (hydroxypropylcellulose) (HPC)
  T/C: 134 % of control
dose: 30.0 mg/kg/injection, schedule: Q01DX001 (ip), vehicle: other
  survivor count: 3 of 10 (2×) and 4 of 10 (2×)
dose: 30.0 mg/kg/injection, schedule: Q01DX009 (ip), vehicle: Klucel (hydroxypropylcellulose) (HPC)
  survivor count: 10 of 10
dose: 30.0 mg/kg/injection, schedule: Q04DX003 (ip), vehicle: Klucel (hydroxypropylcellulose) (HPC)
  T/C: 128 % of control
dose: 30.0 mg/kg/injection, schedule: Q04DX003 (ip), vehicle: other
  survivor count: 4 of 10 (2×) and 6 of 10 (2×)
dose: 32.0 mg/kg/injection, schedule: Q01DX001 (ip), vehicle: saline
  T/C: 148 % of control
dose: 32.0 mg/kg/injection, schedule: Q03HX008 (ip), vehicle: saline
  survivor count: 5 of 10
dose: 32.0 mg/kg/injection, schedule: Q03HX016 (ip), vehicle: saline
  survivor count: 3 of 10
dose: 32.0 mg/kg/injection, schedule: Q04DX003 (ip), vehicle: saline
  T/C: 134 % of control
dose: 32.0 mg/kg/injection, schedule: Q08DX002 (ip), vehicle: saline
  T/C: 143 % of control
dose: 50.0 mg/kg/injection, schedule: Q01DX001 (ip), vehicle: Klucel (hydroxypropylcellulose) (HPC)
  T/C: 132 % of control
dose: 60.0 mg/kg/injection, schedule: Q01DX009 (ip), vehicle: Klucel (hydroxypropylcellulose) (HPC)
  survivor count: 3 of 10
dose: 64.0 mg/kg/injection, schedule: Q01DX001 (ip), vehicle: saline
  T/C: 139 % of control
dose: 64.0 mg/kg/injection, schedule: Q01DX009 (oral), vehicle: saline
  survivor count: 10 of 10 (2×)
dose: 64.0 mg/kg/injection, schedule: Q08DX002 (ip), vehicle: saline
  T/C: 140 % of control
dose: 120.0 mg/kg/injection, schedule: Q04DX003 (ip), vehicle: Klucel (hydroxypropylcellulose) (HPC)
  survivor count: 10 of 10
dose: 128.0 mg/kg/injection, schedule: Q01DX001 (ip), vehicle: saline
  survivor count: 6 of 10

— PubChem BioAssay AID256 (DTP/NCI, 2004)
